Source: PubChem BioAssay AID1487 (National Center for Advancing Translational Sciences (NCATS), 2009)
This is one part of the list. Shown are side measurements of this screen, not its main read-out; they come without a call. Most of these compounds were active or inconclusive in the main read-out, so they are no random draw. Words in brackets tell the shape of the fitted curve; partial curves, single points and poor fits give uncertain potencies.

Test: qHTS Assay for Modulators of Lamin A Splicing
Conditions: HeLa LMNA splicing GFP/RFP minigene ratio, 48 h
In short: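 S3 HeLa cells stably expressing lamin A-EGFP splicing minigene plus DsRed2, 600 cells/well, 48 h compound exposure at 37C. Laser-scanning cytometry; analysed as GFP (500-530 nm)/RFP (575-640 nm) total intensity ratio; 0.5% DMSO vehicle.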

[1] = measured here: RFP viability control channel
[2] = measured here: GFP splicing reporter channel

Row | SMILES | AC50 [1] | AC50 [2]
1 | CC(=O)c1cccc(NC(=S)NCCCCc2ccccc2)c1 | 0.224 µM [rising, partial curve, poor fit] | 
2 | N#Cc1c(NC(=O)c2cc(-n3cnnc3)ccc2Cl)sc2c1CCCC2 | 14.1 µM [rising, single point] | 
3 | COc1ccc(OC)c(S(=O)(=O)N2CCCCC2C(=O)N2CCN(c3ccccn3)CC2)c1 (stereo not drawn) | 3.16 µM [falling, partial curve, poor fit] | 
4 | CCOC(=O)c1cnc(-c2ccccc2)nc1C(F)(F)F |  | 0.00501 µM [rising, full curve, poor fit]
5 | COc1cc(CNc2ccc3[nH]c(=O)[nH]c3c2)ccc1OCc1ccc(F)cc1Cl | 20 µM [falling, partial curve, poor fit] | 8.91 µM [falling, partial curve, poor fit]
6 | Cc1ccc([N+](=O)[O-])cc1NC1OC(CO)C(O)C1O (stereo not drawn) |  | 1.41 µM [rising, partial curve, poor fit]
7 | Cc1ccc(C)c(N2CCN(C(=O)c3cc(S(=O)(=O)N4CCOCC4)ccc3F)CC2)c1 | 25.1 µM [rising, partial curve] | 14.1 µM [rising, single point]
8 | CC(C)Oc1cccc(C(=O)C2CCCN(Cc3cnc(N4CCOCC4)s3)C2)c1 (stereo not drawn) | 0.00355 µM [falling, full curve, poor fit] | 
9 | O=C(N/N=C/c1ccccn1)C12CC3CC(CC(C3)C1)C2 | 25.1 µM [rising, single point] | 31.6 µM [rising, single point]
10 | COc1ccc(N2CCN(C(=O)CNC(=O)c3ccc(C(C)(C)C)cc3)CC2)cc1 | 15.8 µM [rising, single point] | 11.2 µM [rising, partial curve, poor fit]
11 | O=C1NC2(CCCc3ccccc32)C(=O)N1Cc1nnc(-c2ccccc2Br)o1 (stereo not drawn) | 14.1 µM [rising, single point] | 11.2 µM [rising, partial curve]
12 | CC(=O)N(CC(O)CN(C(C)=O)c1c(I)c(C(=O)NC[C@@H](O)CO)c(I)c(C(=O)NC[C@@H](O)CO)c1I)c1c(I)c(C(=O)NC[C@@H](O)CO)c(I)c(C(=O)NC[C@@H](O)CO)c1I | 0.0562 µM [rising, full curve, poor fit] | 0.891 µM [rising, full curve, poor fit]
13 | Cc1ccc2c(Cn3cc(C(F)(F)F)cc(Cl)c3=O)cc(=O)oc2c1 | 2.51 µM [rising, single point] | 
14 | O=c1c2ccccc2nnn1CSc1nc2ccccc2c(=O)n1Cc1ccco1 | 11.2 µM [rising, partial curve, poor fit] | 
15 | O=C(CCC1N=C2c3ccccc3N=C(SCc3ccccc3Cl)N2C1=O)NCc1ccco1 (stereo not drawn) |  | 22.4 µM [rising, single point]
16 | CC(C)(C)c1ccc(NC(=O)NC2CCCc3ccccc32)cc1 (stereo not drawn) | 11.2 µM [falling, partial curve] | 
17 | Cc1ccc(Nc2nnc(SCC(=O)Nc3cccc(S(=O)(=O)N4CCCCC4)c3)s2)cc1 | 35.5 µM [rising, single point] | 

Row | SMILES | AC50 [1] | AC50 [2]
18 | CCCc1cnc2c(c1SCc1cccc(F)c1)c(=O)n(C)c(=O)n2C | 12.6 µM [rising, partial curve] | 11.2 µM [rising, partial curve]
19 | O=C(CCl)N(c1ccccc1)C1CCS(=O)(=O)C1 (stereo not drawn) | 2.82 µM [falling, partial curve] | 35.5 µM [falling, single point]
20 | O=S(=O)(Nc1cccc(-c2cn3ccsc3n2)c1)c1ccc(F)cc1 | 17.8 µM [rising, single point] | 
21 | Cc1noc(C)c1-c1nccc(NCc2ccccc2)n1 |  | 12.6 µM [falling, partial curve]
22 | COc1ccc(-c2cc(-c3ccccc3O)[nH]n2)cc1 | 14.1 µM [rising, single point] | 
23 | CC(OC(=O)CN1C(=O)C2CCCCC2C1=O)C(=O)Nc1ncc(Cl)cc1Cl (stereo not drawn) | 0.891 µM [falling, full curve] | 0.631 µM [falling, full curve]
24 | O=C(CSc1ncnc2ccccc12)NCC(=O)c1ccccc1 |  | 10 µM [falling, partial curve, poor fit]
25 | COc1cccc(/C=N/Nc2ncnc3scc(-c4ccccc4)c23)c1O | 25.1 µM [rising, partial curve] | 14.1 µM [rising, partial curve]
26 | Cc1ccc(CSc2nc3c(cc2C#N)CCC3)cc1 |  | 6.31 µM [falling, single point]
27 | CC(C)CC(=O)NC(=S)NNC(=O)c1cccc([N+](=O)[O-])c1 | 35.5 µM [rising, single point] | 
28 | Cc1ccc(S(=O)(=O)c2nc(S(C)(=O)=O)sc2NCc2ccc3c(c2)OCO3)cc1 | 25.1 µM [rising, single point] | 
29 | CCn1c(=N)n(CC(O)COc2ccccc2)c2ccccc21 (stereo not drawn) |  | 0.158 µM [rising, full curve, poor fit]
30 | CCOC(=O)C1=C(C)N(C)C(=S)NC1c1ccc(Cl)cc1Cl (stereo not drawn) | 35.5 µM [rising, single point] | 12.6 µM [rising, partial curve, poor fit]
31 | COc1ccccc1NC(=O)Cn1c(=O)n(-c2cccc(C)c2)c(=O)c2c1c1cc(C)ccc1n2C | 0.0158 µM [falling, full curve, poor fit] | 
32 | Cn1ccnc1C(O)c1cc(C(C)(C)C)c(O)c(C(C)(C)C)c1 (stereo not drawn) | 2.51 µM [falling, single point] | 2.82 µM [falling, single point]
33 | CC12CC(NC(=O)N1CCc1ccccc1)c1cc(Cl)ccc1O2 (stereo not drawn) | 11.2 µM [rising, partial curve] | 12.6 µM [rising, single point]
34 | Cc1ccc(CN2CC(C(=O)Nc3cc(S(C)(=O)=O)ccc3Cl)CC2=O)cc1 (stereo not drawn) | 35.5 µM [rising, single point] | 35.5 µM [rising, single point]

2 records picked at random from those above:
Row | SMILES | AC50 [1] | AC50 [2]
25 | COc1cccc(/C=N/Nc2ncnc3scc(-c4ccccc4)c23)c1O | 25.1 µM [rising, partial curve] | 14.1 µM [rising, partial curve]
28 | Cc1ccc(S(=O)(=O)c2nc(S(C)(=O)=O)sc2NCc2ccc3c(c2)OCO3)cc1 | 25.1 µM [rising, single point] | 
